The target in this experiment is HLA-G2 standard protein (human) (UniProt P17693). The experiment in a line: immunoblot, antibody at 1.0 ug/ml. (Immunoblotting shows a protein as a band on a membrane.)

These are yes or no findings as the source states them, for the method shown. Some results given as binding are weak or reduced against the parent protein; the word gives no strength.

B1: monoclonal antibody (YWHG-3) against HLA-G1, -G2, -G5 and HLA-G6 isoforms (antibody, IgG1, V domains shown)
VH: LVQLQQSGGGLVKPGGSLKLSCAASGFTFSDYNMYWVRQTPEKRLEWVATISDGGRSTFYLDSVKGRFTISRDNAKNNLYLQINNLKSEDTAIYYCVRDDYWGQGTTLTVSS
VL: DIMMTQTPLSLPVSLGDQASISCRSSQSLVHSTGNTFLNWYLQKPGQSPKLLIYKVSNRFSGVSDRFSGSGSGTDFTLKIRRVEAEDLGVYFCSQSTHVPWTFGGGTKLEIK
notes: Used biotin-labelled in the HLA-G5 ELISA and FITC-labelled in flow cytometry; also called hybridoma CCTCC NO: 202121
Regarding B1, the binding entry is reported as “binds”.

The values are drawn from US20250034261A1 (TAIZHOU ENZE MEDICAL CENTER GROUP, published 2025).
